# Source: the supplement of paper PMC8728848
# The list shows a part of the results.
# B1: truncCC1G-10077 (Coprinopsis cinerea) (protein)
# chain: MHHHHHHHHPLPSPGPGWVLIQNGGTGKFLCSTPSGDIGTADGPETVYDYSVQWRFIQREYTGVYHVVNRATGAYLRQIGTSMPSIGLAEENDDELKDWWMLETYDNSEIGLASIISRWTGNVLDHYGGVSVQALDNNTENSYRSWAIIPARDWLTSFSLVNGQGGLCLAAQYAREETRLSTTANVNDFHAQWVFRKPSGSSGYTIQNKYNNHYVGGTSARWELVVCCNKYFGIRNTSTQKYLAIEDGQVTFQDQDMTDRKQCWELCSGRATDTSGNDYDLIYMDDDLLEVMIPWVGDKQGDLKHYIEKRATKKPPKDKGGWQLPAAGLIKKPKFNDIRQLLQELIEQWEWDVVNEEREQIQTLVSIDEAEARRLLGRRPHPDIVAAYQRSRSSTLFRIDRQGYFNIAGDRYVNIQGQYGDDSYFHIALPVGVRFGREQIRRFLRDSLDRSTSVTITPTTCKPPSGGPDYNRDPDSDGDNSWIKWTIAVVGTSAIKHSEL
# Experiments:
# Assay in all cases: glycan array binding signal (z-score within array); higher = stronger binding
# Settings in all cases: glycan notation: IUPAC condensed, linker removed
# Gal(b1-4)Glc = biological target: Gal(b1-4)Glc
# How it was run: (§1)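 From the Consortium for Functional Glycomics database, 3228 arrays were curated, keeping only those whose protein sequence was available. Binding is given as a within-array Z-score averaged across arrays sharing a protein sequence and across linkers. Negative Z-scores can be read as non-binding.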
# Gal(b1-4)Glc6S = biological target: Gal(b1-4)Glc6S
# How it was run: as §1
# Gal(b1-4)GlcNAc = biological target: Gal(b1-4)GlcNAc
# How it was run: as §1
# [1] = biological target: Gal(b1-4)GlcNAc(a1-6)Gal(b1-4)GlcNAc
# How it was run: as §1
# Gal(b1-4)GlcNAc(b1-2)Man = biological target: Gal(b1-4)GlcNAc(b1-2)Man
# How it was run: as §1
# [2] = biological target: Gal(b1-4)GlcNAc(b1-2)Man(a1-3)Man(b1-4)GlcNAc(b1-4)GlcNAc
# How it was run: as §1
# [3] = biological target: Gal(b1-4)GlcNAc(b1-2)Man(a1-3)[Gal(b1-4)GlcNAc(b1-2)Man(a1-6)]Man(b1-4)GlcNAc(b1-4)GlcNAc
# How it was run: as §1
# [4] = biological target: Gal(b1-4)GlcNAc(b1-2)Man(a1-3)[Gal(b1-4)GlcNAc(b1-2)Man(a1-6)]Man(b1-4)GlcNAc(b1-4)[Fuc(a1-6)]GlcNAc
# How it was run: as §1
# [5] = biological target: Gal(b1-4)GlcNAc(b1-2)Man(a1-3)[Gal(b1-4)GlcNAc(b1-2)Man(a1-6)][Gal(b1-4)GlcNAc(b1-4)]Man(b1-4)GlcNAc(b1-4)[Fuc(a1-6)]GlcNAc
# How it was run: as §1
# [6] = biological target: Gal(b1-4)GlcNAc(b1-2)Man(a1-3)[Gal(b1-4)GlcNAc(b1-2)Man(a1-6)][GlcNAc(b1-4)]Man(b1-4)GlcNAc(b1-4)[Fuc(a1-6)]GlcNAc
# How it was run: as §1
# [7] = biological target: Gal(b1-4)GlcNAc(b1-2)Man(a1-3)[GlcNAc(b1-2)Man(a1-6)]Man(b1-4)GlcNAc(b1-4)GlcNAc
# How it was run: as §1
# [8] = biological target: Gal(b1-4)GlcNAc(b1-2)Man(a1-3)[GlcNAc(b1-4)][Gal(b1-4)GlcNAc(b1-2)Man(a1-6)]Man(b1-4)GlcNAc(b1-4)GlcNAc
# How it was run: as §1
# [9] = biological target: Gal(b1-4)GlcNAc(b1-2)Man(a1-3)[Man(a1-6)]Man(b1-4)GlcNAc(b1-4)GlcNAc
# How it was run: as §1
# [10] = biological target: Gal(b1-4)GlcNAc(b1-2)Man(a1-6)Man(b1-4)GlcNAc(b1-4)GlcNAc
# How it was run: as §1
# [11] = biological target: Gal(b1-4)GlcNAc(b1-2)Man(a1-6)[GlcNAc(b1-2)Man(a1-3)]Man(b1-4)GlcNAc(b1-4)GlcNAc
# How it was run: as §1
# [12] = biological target: Gal(b1-4)GlcNAc(b1-2)Man(a1-6)[Man(a1-3)]Man(b1-4)GlcNAc(b1-4)GlcNAc
# How it was run: as §1
# [13] = biological target: Gal(b1-4)GlcNAc(b1-2)[Gal(b1-4)GlcNAc(b1-4)]Man(a1-3)[Gal(b1-4)GlcNAc(b1-2)Man(a1-6)]Man(b1-4)GlcNAc(b1-4)GlcNAc
# How it was run: as §1
# [14] = biological target: Gal(b1-4)GlcNAc(b1-2)[Gal(b1-4)GlcNAc(b1-4)]Man(a1-3)[Gal(b1-4)GlcNAc(b1-2)[Gal(b1-4)GlcNAc(b1-6)]Man(a1-6)]Man(b1-4)GlcNAc(b1-4)GlcNAc
# How it was run: as §1
# [15] = biological target: Gal(b1-4)GlcNAc(b1-2)[Gal(b1-4)GlcNAc(b1-4)]Man(a1-3)[GlcNAc(b1-4)][Gal(b1-4)GlcNAc(b1-2)Man(a1-6)]Man(b1-4)GlcNAc(b1-4)GlcNAc
# How it was run: as §1
# [16] = biological target: Gal(b1-4)GlcNAc(b1-2)[Gal(b1-4)GlcNAc(b1-4)]Man(a1-3)[GlcNAc(b1-4)][Gal(b1-4)GlcNAc(b1-2)[Gal(b1-4)GlcNAc(b1-6)]Man(a1-6)]Man(b1-4)GlcNAc(b1-4)GlcNAc
# How it was run: as §1
# [17] = biological target: Gal(b1-4)GlcNAc(b1-2)[Gal(b1-4)GlcNAc(b1-6)]Man(a1-6)[Gal(b1-4)GlcNAc(b1-2)Man(a1-3)]Man(b1-4)GlcNAc(b1-4)GlcNAc
# How it was run: as §1
# [18] = biological target: Gal(b1-4)GlcNAc(b1-2)[Gal(b1-4)GlcNAc(b1-6)]Man(a1-6)[Gal(b1-4)GlcNAc(b1-2)Man(a1-3)]Man(b1-4)GlcNAc(b1-4)[Fuc(a1-6)]GlcNAc
# How it was run: as §1
# [19] = biological target: Gal(b1-4)GlcNAc(b1-2)[Gal(b1-4)GlcNAc(b1-6)]Man(a1-6)[GlcNAc(b1-4)][Gal(b1-4)GlcNAc(b1-2)Man(a1-3)]Man(b1-4)GlcNAc(b1-4)GlcNAc
# How it was run: as §1
# [20] = biological target: Gal(b1-4)GlcNAc(b1-2)[Gal(b1-4)GlcNAc(b1-6)]Man(a1-6)[GlcNAc(b1-4)][Gal(b1-4)GlcNAc(b1-2)[Gal(b1-4)GlcNAc(b1-4)]Man(a1-3)]Man(b1-4)GlcNAc(b1-4)[Fuc(a1-6)]GlcNAc
# How it was run: as §1
# [21] = biological target: Gal(b1-4)GlcNAc(b1-3)Gal(b1-3)GalNAc
# How it was run: as §1
# [22] = biological target: Gal(b1-4)GlcNAc(b1-3)Gal(b1-3)GlcNAc
# How it was run: as §1
# [23] = biological target: Gal(b1-4)GlcNAc(b1-3)Gal(b1-4)Glc
# How it was run: as §1
# [24] = biological target: Gal(b1-4)GlcNAc(b1-3)Gal(b1-4)GlcNAc
# How it was run: as §1
# [25] = biological target: Gal(b1-4)GlcNAc(b1-3)Gal(b1-4)GlcNAc(b1-2)Man(a1-3)[Gal(b1-4)GlcNAc(b1-3)Gal(b1-4)GlcNAc(b1-2)Man(a1-6)]Man(b1-4)GlcNAc(b1-4)GlcNAc
# How it was run: as §1
# [26] = biological target: Gal(b1-4)GlcNAc(b1-3)Gal(b1-4)GlcNAc(b1-2)Man(a1-3)[Gal(b1-4)GlcNAc(b1-3)Gal(b1-4)GlcNAc(b1-2)Man(a1-6)]Man(b1-4)GlcNAc(b1-4)[Fuc(a1-6)]GlcNAc
# How it was run: as §1
# [27] = biological target: Gal(b1-4)GlcNAc(b1-3)Gal(b1-4)GlcNAc(b1-2)[Gal(b1-4)GlcNAc(b1-3)Gal(b1-4)GlcNAc(b1-6)]Man(a1-6)[Gal(b1-4)GlcNAc(b1-3)Gal(b1-4)GlcNAc(b1-2)Man(a1-3)]Man(b1-4)GlcNAc(b1-4)GlcNAc
# How it was run: as §1
# [28] = biological target: Gal(b1-4)GlcNAc(b1-3)Gal(b1-4)GlcNAc(b1-2)[Gal(b1-4)GlcNAc(b1-3)Gal(b1-4)GlcNAc(b1-6)]Man(a1-6)[Gal(b1-4)GlcNAc(b1-3)Gal(b1-4)GlcNAc(b1-2)Man(a1-3)]Man(b1-4)GlcNAc(b1-4)[Fuc(a1-6)]GlcNAc
# How it was run: as §1
# [29] = biological target: Gal(b1-4)GlcNAc(b1-3)Gal(b1-4)GlcNAc(b1-3)Gal(b1-4)GlcNAc
# How it was run: as §1
# [30] = biological target: Gal(b1-4)GlcNAc(b1-3)Gal(b1-4)GlcNAc(b1-3)Gal(b1-4)GlcNAc(b1-2)Man(a1-3)[Gal(b1-4)GlcNAc(b1-3)Gal(b1-4)GlcNAc(b1-3)Gal(b1-4)GlcNAc(b1-2)Man(a1-6)]Man(b1-4)GlcNAc(b1-4)GlcNAc
# How it was run: as §1
# [31] = biological target: Gal(b1-4)GlcNAc(b1-3)Gal(b1-4)GlcNAc(b1-3)Gal(b1-4)GlcNAc(b1-2)Man(a1-3)[Gal(b1-4)GlcNAc(b1-3)Gal(b1-4)GlcNAc(b1-3)Gal(b1-4)GlcNAc(b1-2)Man(a1-6)]Man(b1-4)GlcNAc(b1-4)[Fuc(a1-6)]GlcNAc
# How it was run: as §1
# [32] = biological target: Gal(b1-4)GlcNAc(b1-3)Gal(b1-4)GlcNAc(b1-3)Gal(b1-4)GlcNAc(b1-2)[Gal(b1-4)GlcNAc(b1-3)Gal(b1-4)GlcNAc(b1-3)Gal(b1-4)GlcNAc(b1-6)]Man(a1-6)[Gal(b1-4)GlcNAc(b1-3)Gal(b1-4)GlcNAc(b1-3)Gal(b1-4)GlcNAc(b1-2)Man(a1-3)]Man(b1-4)GlcNAc(b1-4)[Fuc(a1-6)]GlcNAc
# How it was run: as §1
# [33] = biological target: Gal(b1-4)GlcNAc(b1-3)Gal(b1-4)GlcNAc(b1-3)Gal(b1-4)GlcNAc(b1-3)Gal(b1-4)GlcNAc(b1-2)Man(a1-3)[Gal(b1-4)GlcNAc(b1-3)Gal(b1-4)GlcNAc(b1-3)Gal(b1-4)GlcNAc(b1-3)Gal(b1-4)GlcNAc(b1-2)Man(a1-6)]Man(b1-4)GlcNAc(b1-4)GlcNAc
# How it was run: as §1
binder,measurement,setting,value
B1,glycan array binding signal (z-score),Gal(b1-4)Glc,0.499
same,glycan array binding signal (z-score),Gal(b1-4)Glc6S,0.007
same,glycan array binding signal (z-score),Gal(b1-4)GlcNAc,-0.875
same,glycan array binding signal (z-score),[1],-1.47
same,glycan array binding signal (z-score),Gal(b1-4)GlcNAc(b1-2)Man,0.255
same,glycan array binding signal (z-score),[2],-0.25
same,glycan array binding signal (z-score),[3],0.355
same,glycan array binding signal (z-score),[4],3.13
same,glycan array binding signal (z-score),[5],-0.339
same,glycan array binding signal (z-score),[6],-1.45
same,glycan array binding signal (z-score),[7],-0.816
same,glycan array binding signal (z-score),[8],0.359
same,glycan array binding signal (z-score),[9],0.95
same,glycan array binding signal (z-score),[10],-0.278
same,glycan array binding signal (z-score),[11],-0.574
same,glycan array binding signal (z-score),[12],-0.862
same,glycan array binding signal (z-score),[13],-0.431
same,glycan array binding signal (z-score),[14],-1.06
same,glycan array binding signal (z-score),[15],-0.399
same,glycan array binding signal (z-score),[16],-0.348
same,glycan array binding signal (z-score),[17],-0.476
same,glycan array binding signal (z-score),[18],0.857
same,glycan array binding signal (z-score),[19],-0.119
same,glycan array binding signal (z-score),[20],-0.091
same,glycan array binding signal (z-score),[21],-0.625
same,glycan array binding signal (z-score),[22],-1.23
same,glycan array binding signal (z-score),[23],-1.04
same,glycan array binding signal (z-score),[24],-1.09
same,glycan array binding signal (z-score),[25],2.16
same,glycan array binding signal (z-score),[26],1.7
same,glycan array binding signal (z-score),[27],3.74
same,glycan array binding signal (z-score),[28],0.923
same,glycan array binding signal (z-score),[29],-0.532
same,glycan array binding signal (z-score),[30],2.49
same,glycan array binding signal (z-score),[31],0.712
same,glycan array binding signal (z-score),[32],1.26
same,glycan array binding signal (z-score),[33],1.63

# For convenience, some entries already given:
binder,measurement,setting,value
B1,glycan array binding signal (z-score),[3],0.355
same,glycan array binding signal (z-score),[4],3.13
